Results are given in words; binding and its absence hold for the method and conditions named. Tags and fused reporters may be left off the sequences shown.
Target: NET4B with C-terminal deletion including the IRQ domain, yeast two-hybrid bait (Arabidopsis thaliana)
Assay: two-hybrid; one-on-one mating; pGBKT7 baits in AH109, pGADT7 preys in Y187; growth on SD -WLH + 2.5 mM 3AT at 30 °C for 5-7 days; empty vectors as controls

B1: CA-RABG3a (constitutive active, Q67L), yeast two-hybrid fusion (protein, UniProt Q948K8 1-206)
chain: MATRRRTLLKVIVLGDSGVGKTSLMNQYVHKKFSMQYKATIGADFVTKELQIGEKLVTLQIWDTAGLERFQSLGAAFYRGADCCALVYDVNVLRSFDNLETWHEEFLKQASPSDPKTFPFIVLGNKIDVDGGSSRVVSDKKAADWCASNGNIPYFETSAKDDFNVDEAFLTIAKTALANEHEQDIYFQGIPDAVTENEPKGGGCAC
binding: no binding

Source: paper PMC10511709
